Results are given in words; binding and its absence hold for the method and conditions named. Some binding calls cover weakened binding; strength is not graded here.
Target: B18-FL (Vaccinia virus strain Western Reserve B18 protein with a FLAG epitope at the C terminus, sec (Vaccinia virus strain Western Reserve) (UniProt P25213))
Assay: immunoprecipitation with FLAG antibody, competition with [^32P]-IFN-α2-P

B1: human IFN-ε (ligand, UniProt Q86WN2 22-208, looked up)
chain: LDLKLIIFQQRQVNQESLKLLNKLQTLSIQQCLPHRKNFLLPQKSLSPQQYQKGHTLAILHEMLQQIFSLFRANISLDGWEENHTEKFLIQLHQQLEYLEALMGLEAEKLSGTLGSDNLRLQVKMYFRRIHDYLENQDYSTCAWAIVQVEISRCLFFVFSLTEKLSKQGRPLNDMKQELTTEFRSPR
- binding: binds

From patent US20150139999A1
